Values quoted from earlier work in article PMC6034060, “Enantioselective pharmacokinetics of tramadol and its three main metabolites; impact of CYP2D6, CYP2B6, and CYP3A4 genotype” (Pharmacology Research & Perspectives, 2018).

Tested on: noradrenaline reuptake
Conditions: comparison of the tramadol enantiomers; cited from earlier work

COc1cccc(C2(O)CCCCC2CN(C)C)c1 (stereo not drawn) [(−)‐tramadol, reference compound]
Inhibition of noradrenaline reuptake: preferentially inhibits noradrenaline reuptake
